No constants are given. Whether binding was seen depends on the method and setting. In cells and extracts the contact can be indirect. Here binding means that the protein was enriched with, or labelled near, the bait; the list need not be complete.

Sequences of proteins named here, by UniProt entry; tags and fusion partners are left off.
UniProt Q92833: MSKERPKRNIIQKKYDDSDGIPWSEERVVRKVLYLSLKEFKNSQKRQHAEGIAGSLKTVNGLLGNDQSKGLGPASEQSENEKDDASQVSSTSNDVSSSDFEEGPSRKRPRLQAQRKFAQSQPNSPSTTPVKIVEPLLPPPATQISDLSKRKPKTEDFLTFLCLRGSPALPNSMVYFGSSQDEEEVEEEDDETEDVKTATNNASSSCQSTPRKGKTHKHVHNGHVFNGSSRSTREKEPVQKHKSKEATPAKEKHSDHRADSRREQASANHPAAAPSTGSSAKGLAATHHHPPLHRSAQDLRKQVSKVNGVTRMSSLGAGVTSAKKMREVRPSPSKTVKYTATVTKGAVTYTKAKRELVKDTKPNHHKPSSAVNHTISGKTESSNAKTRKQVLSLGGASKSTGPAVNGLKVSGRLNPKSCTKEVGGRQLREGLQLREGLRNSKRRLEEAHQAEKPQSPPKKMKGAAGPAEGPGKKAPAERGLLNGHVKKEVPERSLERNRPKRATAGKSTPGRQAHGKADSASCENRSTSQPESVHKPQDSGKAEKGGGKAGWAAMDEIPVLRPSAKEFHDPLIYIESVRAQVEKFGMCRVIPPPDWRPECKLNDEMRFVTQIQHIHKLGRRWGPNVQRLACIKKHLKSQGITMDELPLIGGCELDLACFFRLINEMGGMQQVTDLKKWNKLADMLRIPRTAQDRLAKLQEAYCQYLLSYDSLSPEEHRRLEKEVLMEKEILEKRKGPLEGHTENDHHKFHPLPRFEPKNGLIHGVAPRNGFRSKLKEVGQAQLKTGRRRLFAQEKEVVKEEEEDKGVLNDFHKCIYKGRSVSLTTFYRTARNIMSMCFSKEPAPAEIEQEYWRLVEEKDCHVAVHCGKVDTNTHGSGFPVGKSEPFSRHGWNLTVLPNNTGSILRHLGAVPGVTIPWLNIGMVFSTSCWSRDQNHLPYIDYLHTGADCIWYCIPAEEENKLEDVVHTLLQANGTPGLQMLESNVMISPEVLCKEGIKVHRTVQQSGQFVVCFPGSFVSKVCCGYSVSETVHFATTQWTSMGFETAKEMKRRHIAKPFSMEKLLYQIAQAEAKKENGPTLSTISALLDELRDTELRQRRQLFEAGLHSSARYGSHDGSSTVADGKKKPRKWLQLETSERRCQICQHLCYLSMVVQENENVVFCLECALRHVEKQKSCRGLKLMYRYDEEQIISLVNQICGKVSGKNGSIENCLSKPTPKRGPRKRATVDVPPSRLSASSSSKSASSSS
UniProt P67809: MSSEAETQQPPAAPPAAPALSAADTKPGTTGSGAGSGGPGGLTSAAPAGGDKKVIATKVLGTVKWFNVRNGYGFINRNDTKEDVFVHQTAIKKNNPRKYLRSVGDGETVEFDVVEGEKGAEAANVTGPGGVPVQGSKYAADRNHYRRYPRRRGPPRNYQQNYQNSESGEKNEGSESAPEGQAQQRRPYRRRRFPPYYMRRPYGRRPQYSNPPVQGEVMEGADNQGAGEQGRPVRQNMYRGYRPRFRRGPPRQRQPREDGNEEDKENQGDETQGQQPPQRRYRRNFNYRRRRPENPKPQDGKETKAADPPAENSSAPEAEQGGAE

In the assay the target is JARID2 (human (endogenous in H9 hESC and hNPC)) (UniProt Q92833). Put plainly: affinity purification with mass spectrometry; endogenous JARID2 immunoprecipitated (anti-JARID2) from H9 hESC nuclear extract, against IgG IP; three biological replicates.

With “Y-box binding protein 1 (from UniProt P67809 1-324)”, the binding result is given as “binds”.

Values taken from PMC7426271.
